# Data published in PubChem BioAssay AID2551 (National Center for Advancing Translational Sciences (NCATS), 2010).
# The chains behind the UniProt entries cited, without tags or fusion partners. Where a name states a change or a piece, a line headed by the entry shows the natural chain unless it says otherwise.
# UniProt P51450: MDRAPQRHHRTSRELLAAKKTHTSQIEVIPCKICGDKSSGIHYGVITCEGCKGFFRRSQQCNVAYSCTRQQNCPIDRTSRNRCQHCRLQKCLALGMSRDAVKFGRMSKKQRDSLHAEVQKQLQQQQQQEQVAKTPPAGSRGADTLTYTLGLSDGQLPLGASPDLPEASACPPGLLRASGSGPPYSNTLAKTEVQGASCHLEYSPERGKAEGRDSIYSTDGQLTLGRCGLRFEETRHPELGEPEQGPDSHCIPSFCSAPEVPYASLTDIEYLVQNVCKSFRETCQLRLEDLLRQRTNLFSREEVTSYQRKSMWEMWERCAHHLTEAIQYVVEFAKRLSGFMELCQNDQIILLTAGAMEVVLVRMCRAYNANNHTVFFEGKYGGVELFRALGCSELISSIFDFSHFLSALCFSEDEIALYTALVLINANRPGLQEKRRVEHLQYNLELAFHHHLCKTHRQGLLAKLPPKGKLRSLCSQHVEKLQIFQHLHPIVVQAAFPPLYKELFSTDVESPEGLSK
# In all, about 310,000 compounds went through this assay and about 17,000 (5.5%) were called active. Inconclusive means that the source gave no clear call. Such entries were picked first, then a sample of the others. The call rests on the fitted dose curve; in most records, active means well fitted inhibition curve with a large enough effect; inconclusive means small, poorly fitted or top-dose-only effect, or effect the other way; inactive means no such curve, though single readings can be large or run the other way. Potencies beside an inconclusive call are fits to weak or partial responses and may not hold up.
# Biological target: Nuclear receptor ROR-gamma (Mus musculus) (UniProt P51450)
# Assay: qHTS for inhibitors of ROR gamma transcriptional activity; further: nearly all actives have a fitted effect of over 60% in size
# Settings: Drosophila S2 Gal4-RORgamma UAS-luciferase reporter, 20 h; series mostly up to 53.6 µM
# Outline: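 Drosophila S2 cells stably expressing Gal4-DBD/mouse RORγ fusion under metallothionein promoter plus UAS-luciferase; compound 1 h, then 700 uM CuSO4 induction for 20 h at ambient temperature; inhibition read as reduced luminescence.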
# Potency means the concentration at half of the fitted maximal effect.
row,Structure (SMILES),Potency
1,Cc1cc(Nc2ccc(Br)c(C)c2)n2nc(C)nc2n1,"inconclusive: 12.6 µM [inhibitor, partial curve]"
2,COc1cccc(C(=O)Nc2nnc(-c3ccccc3)s2)c1OC,"inconclusive: 5.62 µM [inhibitor, single point]"
3,CCOC(=O)/C=C/C(=O)Nc1ccc(S(=O)(=O)N2CCc3ccccc32)cc1,"inconclusive: 35.5 µM [inhibitor, single point]"
4,Cc1sc2ncn(CC(=O)NCc3ccco3)c(=O)c2c1-c1ccccc1,"inconclusive: 3.98 µM [inhibitor, single point]"
5,C/C(=C\C(=O)c1ccc(F)cc1)NCc1ccc2c(c1)OCO2,"inconclusive: 35.5 µM [activator, single point]"
7,Cc1ccc(CNC(=O)C(=O)NCC2OCCN2S(=O)(=O)c2ccc(Br)cc2)cc1 (stereo unspecified),"inconclusive: 22.4 µM [activator, single point]"
8,COc1ccc(S(=O)(=O)NC2CC2)cc1Cl,inactive
9,CCn1cc(Cl)c(C(=O)N2N=C3/C(=C/c4cccs4)CCCC3C2c2cccs2)n1 (stereo unspecified),"inconclusive: 3.98 µM [activator, single point]"
10,COc1ccc(N(CC(=O)NCc2ccccc2)C(=O)CCC(=O)Nc2cc(C)ccn2)c(OC)c1,"inconclusive: 12.6 µM [activator, partial curve]"
11,CCn1c(CSc2nc3ccccc3s2)nnc1SCC(=O)c1ccc(O)c(O)c1,active: 14.1 µM
12,Cc1csc(NC(=O)C(NS(=O)(=O)c2ccc(Br)s2)c2ccccc2)n1 (stereo unspecified),active: 12.6 µM
13,COc1ccc(N(C(C)C(=O)N/N=C(\C)C(C)(C)C)S(C)(=O)=O)cc1 (stereo unspecified),inactive
14,Cc1ccc(NCc2n[nH]c(=S)n2-c2cccc(Cl)c2)cc1,active: 7.94 µM
15,COc1ccc(NC(=S)Nc2cccc(Cl)c2)cc1OC,"inconclusive: 35.5 µM [inhibitor, single point]"
16,CC(=O)c1cc2c(cc1NC(=O)CSc1nc3ccccc3o1)OCO2,"inconclusive: 35.5 µM [activator, single point]"
17,CC1(C)CC(=O)C(C2(O)C(=O)Nc3ccccc32)CO1 (stereo unspecified),inactive
18,O=C(O)CCCNS(=O)(=O)c1ccccc1,"inconclusive: 0.0891 µM [activator, full curve, poor fit]"
19,COc1cc(/C=N/Nc2ncc(C(F)(F)F)cc2Cl)cc(OC)c1OC,"inconclusive: 35.5 µM [inhibitor, single point]"
20,CC(C)(C)SCCNC(=O)CN(c1ccc(F)cc1)S(C)(=O)=O,"inconclusive: 6.31 µM [inhibitor, single point]"
21,COc1cccc(NC(=O)COc2ccc(C)cc2)c1,"inconclusive: 12.6 µM [activator, single point]"
22,COc1ccc(NC(=S)NCC2CCCO2)c(OC)c1 (stereo unspecified),inactive
23,CCCC(=O)Nc1sc2c(c1C(=O)OC)C(C(=O)OC)CC2 (stereo unspecified),"inconclusive: 11.2 µM [activator, partial curve]"

# 4 compounds from above, sorted by number of heavy atoms, smallest number first:
row,Structure (SMILES),Potency
17,CC1(C)CC(=O)C(C2(O)C(=O)Nc3ccccc32)CO1 (stereo unspecified),inactive
20,CC(C)(C)SCCNC(=O)CN(c1ccc(F)cc1)S(C)(=O)=O,"inconclusive: 6.31 µM [inhibitor, single point]"
19,COc1cc(/C=N/Nc2ncc(C(F)(F)F)cc2Cl)cc(OC)c1OC,"inconclusive: 35.5 µM [inhibitor, single point]"
3,CCOC(=O)/C=C/C(=O)Nc1ccc(S(=O)(=O)N2CCc3ccccc32)cc1,"inconclusive: 35.5 µM [inhibitor, single point]"

# Carrying on.

row,Structure (SMILES),Potency
1,COc1cc(NC(=O)c2csc3c2CCCC3)ncn1,"inconclusive: 6.31 µM [activator, partial curve, poor fit]"
2,COc1ccc(S(=O)(=O)N2CCC(C(N)=O)(N3CCCCC3)CC2)cc1OC,inactive
3,CN(C)Cc1ccccc1COc1ccccc1,inactive
4,Cc1noc(C)c1-c1ccc2ncnc(NCCN3CCOCC3)c2c1,"inconclusive: 5.01 µM [inhibitor, partial curve, poor fit]"
5,Cc1ccccc1NC(=S)N(Cc1ccccc1)Cc1cccs1,active: 10 µM
6,Cc1ccc2cc(CN(CCc3ccccc3)C(=S)NCCCN(C)C)c(=O)[nH]c2c1,"inconclusive: 35.5 µM [inhibitor, single point]"
7,CCOC(=O)N1CCN(C(=O)c2ccc3nc(SCc4ccc(F)cc4)n(C)c3c2)CC1,"inconclusive: 14.1 µM [activator, single point]"
8,COC(=O)c1c(NC(=O)c2ccco2)sc2c1CCN(C(C)=O)C2,inactive
9,C=CCn1c(SCc2ccc(C#N)cc2)nnc1-c1ccc(C)cc1,"inconclusive: 10 µM [activator, partial curve]"
10,COc1ccc(CCC(=O)N2CCCSC2=Nc2ccc(C(C)=O)cc2)cc1,"inconclusive: 31.6 µM [activator, single point]"
11,CS(=O)(=O)N1N=C(c2ccco2)CC1c1ccc(Cl)cc1 (stereo unspecified),"inconclusive: 12.6 µM [activator, partial curve]"
12,Cc1c(Cl)cccc1NC(=O)CCC(=O)N/N=C/c1ccc[nH]1,"inconclusive: 31.6 µM [inhibitor, single point]"
13,C=CCn1c(SCn2nnc3ccccc3c2=O)nnc1-c1ccc(Br)cc1,"inconclusive: 20 µM [activator, partial curve]"
14,CCN1CCN(c2nc(Nc3ccc(NC(C)=O)cc3)nc(Nc3ccc(NC(C)=O)cc3)n2)CC1,inactive
15,O=C(CCCC(=O)N1CCN(c2cccc(Cl)c2)CC1)c1ccccc1,"inconclusive: 12.6 µM [activator, single point]"
16,Cc1cccc(C)c1NC(=O)CN(CC(=O)O)CC(=O)O,inactive
17,CCOc1ccc(NC(=O)CN2CCN(CC(=O)c3ccc(OC)c(OC)c3)CC2)cc1,active: 2.51 µM
18,COc1ccc(CCC(=O)Nc2nc(-c3ccncc3)cs2)cc1,inactive
19,Cc1ccc(N2C(=O)CC(Sc3ncn[nH]3)C2=O)cc1C (stereo unspecified),"inconclusive: 35.5 µM [inhibitor, single point]"
20,c1ccc(-c2noc(-c3ccncc3)n2)nc1,"inconclusive: 12.6 µM [inhibitor, single point]"
21,CCC(C)c1ccc(NC(=O)CSc2nncn2N)cc1 (stereo unspecified),"inconclusive: 22.4 µM [activator, single point]"
22,CCN(CC)CCNc1nc(-n2nc(C)cc2C)nc2sc3c(c12)CC(C)(C)OC3,active: 2.24 µM
23,Cc1ccc(NC(=O)Cc2nc(CSc3nnc(-c4ccc5c(c4)OCO5)o3)cs2)cc1,"inconclusive: 15.8 µM [activator, partial curve, poor fit]"
